The subject of data set [1] is GST. As to the kind of experiment: EMSA. As to conditions: ~2 ug protein in binding buffer (composition, salt and pH not given), on ice 6 h; 8% polyacrylamide gel, 100 V 30 min, ethidium bromide stain; recombinant protein.
The target in data set [2] is GST-TaRIM1 (Triticum aestivum (line CI12633)) (UniProt A0A182BBB2). As to the kind of experiment: EMSA. As to conditions: ~2 ug protein in binding buffer (composition, salt and pH not given), on ice 6 h; 8% polyacrylamide gel, 100 V 30 min, ethidium bromide stain; recombinant protein; protein details: N-terminal GST (pGEX-4T-1). For orientation: In EMSA bound probe runs differently from free probe, usually more slowly.

For at least one entry, the source does not settle the construct or the ends of the probe. For some assays here: A negative result means that nothing was seen under these conditions.

Results on two sequences are retold here after PMC4929490.

Take “AGTCGACCCACCTACCGCGGATCCTCGACCCACCTACCGTCGATC (double strand) [ACI (AC)]”: the binding result in data set [1] is recorded as “no binding”.

“ATACCAGTCCCCAACGGCTAGCCAGTCCCCAACGGCTAGTTTAACC (double strand) [RT1]”: the binding result in data set [2] is “binds”.
